Results on 26 targets are retold here after the supplement of paper PMC12819154, “High-throughput peptide-centric local stability assay extends protein–ligand identification to membrane proteins, tissues and bacteria” (Nature Structural & Molecular Biology, 2025).

Chains of the proteins cited; added tags and fusions are not shown. Lines headed by an entry give the natural chain unless they say otherwise; changes in a name come on top.
UniProt O60216: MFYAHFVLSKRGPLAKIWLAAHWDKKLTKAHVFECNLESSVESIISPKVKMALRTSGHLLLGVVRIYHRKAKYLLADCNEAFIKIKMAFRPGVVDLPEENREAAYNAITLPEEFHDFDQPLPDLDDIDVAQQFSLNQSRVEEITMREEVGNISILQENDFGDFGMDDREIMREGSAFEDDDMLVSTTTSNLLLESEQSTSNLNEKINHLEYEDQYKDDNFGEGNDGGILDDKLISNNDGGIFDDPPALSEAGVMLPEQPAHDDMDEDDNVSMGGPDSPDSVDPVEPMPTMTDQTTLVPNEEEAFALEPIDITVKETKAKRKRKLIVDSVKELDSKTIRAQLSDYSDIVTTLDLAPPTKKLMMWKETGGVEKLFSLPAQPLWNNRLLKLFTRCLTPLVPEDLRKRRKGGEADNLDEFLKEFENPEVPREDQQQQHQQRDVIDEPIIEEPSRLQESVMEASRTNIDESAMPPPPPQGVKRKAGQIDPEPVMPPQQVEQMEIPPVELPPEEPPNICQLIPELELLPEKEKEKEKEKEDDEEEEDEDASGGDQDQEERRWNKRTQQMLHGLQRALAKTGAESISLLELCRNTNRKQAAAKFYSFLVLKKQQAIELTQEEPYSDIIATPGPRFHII
UniProt O75347: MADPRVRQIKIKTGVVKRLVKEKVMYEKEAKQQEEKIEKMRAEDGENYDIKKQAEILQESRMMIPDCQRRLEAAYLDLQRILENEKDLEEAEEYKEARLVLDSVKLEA
UniProt O75379: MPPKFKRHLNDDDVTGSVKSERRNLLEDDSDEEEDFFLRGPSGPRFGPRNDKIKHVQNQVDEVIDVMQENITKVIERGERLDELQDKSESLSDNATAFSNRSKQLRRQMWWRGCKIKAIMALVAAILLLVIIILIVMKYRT
UniProt O15417: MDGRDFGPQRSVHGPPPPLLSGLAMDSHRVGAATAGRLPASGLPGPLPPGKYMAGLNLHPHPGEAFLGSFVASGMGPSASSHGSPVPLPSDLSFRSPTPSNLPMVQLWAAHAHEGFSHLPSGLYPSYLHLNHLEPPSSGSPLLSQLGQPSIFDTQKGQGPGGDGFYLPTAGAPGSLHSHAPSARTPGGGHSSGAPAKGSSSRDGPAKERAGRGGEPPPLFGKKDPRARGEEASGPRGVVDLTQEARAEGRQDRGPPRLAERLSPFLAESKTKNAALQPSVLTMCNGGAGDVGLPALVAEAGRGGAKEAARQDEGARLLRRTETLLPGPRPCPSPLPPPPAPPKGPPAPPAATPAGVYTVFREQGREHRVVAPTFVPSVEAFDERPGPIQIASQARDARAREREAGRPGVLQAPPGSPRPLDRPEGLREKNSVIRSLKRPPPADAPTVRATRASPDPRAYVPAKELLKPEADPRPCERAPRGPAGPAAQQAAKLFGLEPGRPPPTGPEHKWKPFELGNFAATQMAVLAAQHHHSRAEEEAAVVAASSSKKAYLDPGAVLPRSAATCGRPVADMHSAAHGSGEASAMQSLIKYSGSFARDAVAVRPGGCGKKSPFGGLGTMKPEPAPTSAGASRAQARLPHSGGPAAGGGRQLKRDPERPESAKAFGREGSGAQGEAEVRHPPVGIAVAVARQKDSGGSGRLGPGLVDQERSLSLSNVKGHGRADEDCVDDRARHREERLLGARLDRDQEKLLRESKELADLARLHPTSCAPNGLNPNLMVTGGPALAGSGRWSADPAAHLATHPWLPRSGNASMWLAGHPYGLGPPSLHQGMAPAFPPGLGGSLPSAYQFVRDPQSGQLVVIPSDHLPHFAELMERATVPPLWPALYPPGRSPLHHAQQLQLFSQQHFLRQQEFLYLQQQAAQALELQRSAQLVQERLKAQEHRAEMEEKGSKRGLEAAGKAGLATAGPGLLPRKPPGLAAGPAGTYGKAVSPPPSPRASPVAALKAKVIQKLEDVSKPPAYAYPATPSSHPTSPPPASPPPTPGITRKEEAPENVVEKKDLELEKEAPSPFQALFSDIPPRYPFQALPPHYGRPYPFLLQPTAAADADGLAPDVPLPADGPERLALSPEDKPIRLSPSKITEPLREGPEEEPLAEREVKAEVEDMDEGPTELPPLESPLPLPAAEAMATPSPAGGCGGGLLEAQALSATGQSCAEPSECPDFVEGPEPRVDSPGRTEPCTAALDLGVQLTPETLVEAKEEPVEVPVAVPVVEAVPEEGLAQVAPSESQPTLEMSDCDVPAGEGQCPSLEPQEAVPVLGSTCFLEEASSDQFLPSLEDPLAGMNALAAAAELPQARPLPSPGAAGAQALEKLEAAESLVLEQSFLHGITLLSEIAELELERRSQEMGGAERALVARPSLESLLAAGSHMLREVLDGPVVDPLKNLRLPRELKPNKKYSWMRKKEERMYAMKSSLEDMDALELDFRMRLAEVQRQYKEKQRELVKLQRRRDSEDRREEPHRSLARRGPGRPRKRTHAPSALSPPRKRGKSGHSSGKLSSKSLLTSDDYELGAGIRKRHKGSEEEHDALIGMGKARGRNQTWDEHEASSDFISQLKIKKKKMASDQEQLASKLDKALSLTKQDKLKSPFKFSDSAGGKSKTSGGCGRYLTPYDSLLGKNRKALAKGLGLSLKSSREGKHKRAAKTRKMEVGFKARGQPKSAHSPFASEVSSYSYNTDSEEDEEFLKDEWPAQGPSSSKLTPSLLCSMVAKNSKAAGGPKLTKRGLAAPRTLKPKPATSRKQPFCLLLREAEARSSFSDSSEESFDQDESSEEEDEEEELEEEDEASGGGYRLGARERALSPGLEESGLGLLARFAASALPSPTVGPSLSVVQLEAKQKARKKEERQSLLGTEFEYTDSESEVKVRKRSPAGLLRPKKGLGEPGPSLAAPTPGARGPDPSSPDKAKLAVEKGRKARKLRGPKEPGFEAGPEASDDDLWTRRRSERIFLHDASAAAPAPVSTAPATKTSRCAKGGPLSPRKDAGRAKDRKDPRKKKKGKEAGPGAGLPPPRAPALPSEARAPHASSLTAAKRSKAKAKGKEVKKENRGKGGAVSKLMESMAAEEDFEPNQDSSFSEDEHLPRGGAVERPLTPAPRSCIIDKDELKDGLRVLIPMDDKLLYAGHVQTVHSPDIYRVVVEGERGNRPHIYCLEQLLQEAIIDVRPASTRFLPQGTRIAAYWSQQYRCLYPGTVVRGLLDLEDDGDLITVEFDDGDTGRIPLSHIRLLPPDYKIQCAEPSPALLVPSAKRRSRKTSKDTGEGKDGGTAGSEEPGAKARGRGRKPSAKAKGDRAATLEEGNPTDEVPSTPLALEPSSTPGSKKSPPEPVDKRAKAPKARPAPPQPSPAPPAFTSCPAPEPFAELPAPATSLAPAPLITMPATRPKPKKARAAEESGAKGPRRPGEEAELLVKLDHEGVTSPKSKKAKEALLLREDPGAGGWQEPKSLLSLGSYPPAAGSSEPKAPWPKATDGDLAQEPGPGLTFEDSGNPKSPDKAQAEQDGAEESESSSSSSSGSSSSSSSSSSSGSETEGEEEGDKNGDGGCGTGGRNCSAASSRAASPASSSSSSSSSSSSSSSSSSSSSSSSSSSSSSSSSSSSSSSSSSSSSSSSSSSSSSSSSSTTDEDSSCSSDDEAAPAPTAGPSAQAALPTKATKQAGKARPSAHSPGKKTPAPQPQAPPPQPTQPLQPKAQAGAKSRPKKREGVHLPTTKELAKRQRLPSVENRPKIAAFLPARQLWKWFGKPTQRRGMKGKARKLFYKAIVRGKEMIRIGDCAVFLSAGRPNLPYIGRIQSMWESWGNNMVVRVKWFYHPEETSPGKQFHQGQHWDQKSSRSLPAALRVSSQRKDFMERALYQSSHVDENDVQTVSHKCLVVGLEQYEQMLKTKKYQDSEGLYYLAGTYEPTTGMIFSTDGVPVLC
UniProt O43747: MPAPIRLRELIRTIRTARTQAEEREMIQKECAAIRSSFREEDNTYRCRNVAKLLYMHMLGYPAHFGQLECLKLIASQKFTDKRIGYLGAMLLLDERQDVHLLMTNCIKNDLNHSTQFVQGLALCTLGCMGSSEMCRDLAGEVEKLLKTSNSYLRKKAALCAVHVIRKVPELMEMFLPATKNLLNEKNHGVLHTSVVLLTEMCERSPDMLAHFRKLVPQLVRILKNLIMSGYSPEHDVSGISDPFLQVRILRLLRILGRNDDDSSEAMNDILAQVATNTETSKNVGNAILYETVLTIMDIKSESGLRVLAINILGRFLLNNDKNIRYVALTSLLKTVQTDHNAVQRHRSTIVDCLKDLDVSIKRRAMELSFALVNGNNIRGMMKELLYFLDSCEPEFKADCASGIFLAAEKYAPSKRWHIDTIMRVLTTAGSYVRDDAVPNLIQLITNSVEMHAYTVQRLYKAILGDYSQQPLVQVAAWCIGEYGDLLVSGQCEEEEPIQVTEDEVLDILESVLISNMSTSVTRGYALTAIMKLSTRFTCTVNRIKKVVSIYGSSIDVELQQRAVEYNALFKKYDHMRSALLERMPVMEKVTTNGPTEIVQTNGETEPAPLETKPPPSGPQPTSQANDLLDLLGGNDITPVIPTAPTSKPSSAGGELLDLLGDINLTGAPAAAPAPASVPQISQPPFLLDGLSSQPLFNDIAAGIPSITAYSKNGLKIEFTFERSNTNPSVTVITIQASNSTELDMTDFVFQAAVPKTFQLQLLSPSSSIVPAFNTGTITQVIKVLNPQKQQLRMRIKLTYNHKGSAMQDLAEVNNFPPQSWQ
UniProt O43309: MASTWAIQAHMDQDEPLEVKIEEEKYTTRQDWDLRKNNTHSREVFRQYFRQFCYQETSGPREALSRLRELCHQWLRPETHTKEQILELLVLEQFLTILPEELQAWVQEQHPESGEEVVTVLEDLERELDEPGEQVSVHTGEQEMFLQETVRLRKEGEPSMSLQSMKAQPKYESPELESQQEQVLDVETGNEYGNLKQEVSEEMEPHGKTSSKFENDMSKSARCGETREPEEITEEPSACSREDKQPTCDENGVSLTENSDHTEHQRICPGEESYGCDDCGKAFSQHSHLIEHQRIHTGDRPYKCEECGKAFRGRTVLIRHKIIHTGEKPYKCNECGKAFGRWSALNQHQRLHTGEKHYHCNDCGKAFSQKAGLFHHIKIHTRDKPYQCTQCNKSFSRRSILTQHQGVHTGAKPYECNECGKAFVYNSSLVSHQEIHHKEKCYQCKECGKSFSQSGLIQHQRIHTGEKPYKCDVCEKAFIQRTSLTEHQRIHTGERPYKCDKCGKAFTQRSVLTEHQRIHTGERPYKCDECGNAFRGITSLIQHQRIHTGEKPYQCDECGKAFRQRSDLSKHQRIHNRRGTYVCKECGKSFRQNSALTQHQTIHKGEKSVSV
UniProt O43933: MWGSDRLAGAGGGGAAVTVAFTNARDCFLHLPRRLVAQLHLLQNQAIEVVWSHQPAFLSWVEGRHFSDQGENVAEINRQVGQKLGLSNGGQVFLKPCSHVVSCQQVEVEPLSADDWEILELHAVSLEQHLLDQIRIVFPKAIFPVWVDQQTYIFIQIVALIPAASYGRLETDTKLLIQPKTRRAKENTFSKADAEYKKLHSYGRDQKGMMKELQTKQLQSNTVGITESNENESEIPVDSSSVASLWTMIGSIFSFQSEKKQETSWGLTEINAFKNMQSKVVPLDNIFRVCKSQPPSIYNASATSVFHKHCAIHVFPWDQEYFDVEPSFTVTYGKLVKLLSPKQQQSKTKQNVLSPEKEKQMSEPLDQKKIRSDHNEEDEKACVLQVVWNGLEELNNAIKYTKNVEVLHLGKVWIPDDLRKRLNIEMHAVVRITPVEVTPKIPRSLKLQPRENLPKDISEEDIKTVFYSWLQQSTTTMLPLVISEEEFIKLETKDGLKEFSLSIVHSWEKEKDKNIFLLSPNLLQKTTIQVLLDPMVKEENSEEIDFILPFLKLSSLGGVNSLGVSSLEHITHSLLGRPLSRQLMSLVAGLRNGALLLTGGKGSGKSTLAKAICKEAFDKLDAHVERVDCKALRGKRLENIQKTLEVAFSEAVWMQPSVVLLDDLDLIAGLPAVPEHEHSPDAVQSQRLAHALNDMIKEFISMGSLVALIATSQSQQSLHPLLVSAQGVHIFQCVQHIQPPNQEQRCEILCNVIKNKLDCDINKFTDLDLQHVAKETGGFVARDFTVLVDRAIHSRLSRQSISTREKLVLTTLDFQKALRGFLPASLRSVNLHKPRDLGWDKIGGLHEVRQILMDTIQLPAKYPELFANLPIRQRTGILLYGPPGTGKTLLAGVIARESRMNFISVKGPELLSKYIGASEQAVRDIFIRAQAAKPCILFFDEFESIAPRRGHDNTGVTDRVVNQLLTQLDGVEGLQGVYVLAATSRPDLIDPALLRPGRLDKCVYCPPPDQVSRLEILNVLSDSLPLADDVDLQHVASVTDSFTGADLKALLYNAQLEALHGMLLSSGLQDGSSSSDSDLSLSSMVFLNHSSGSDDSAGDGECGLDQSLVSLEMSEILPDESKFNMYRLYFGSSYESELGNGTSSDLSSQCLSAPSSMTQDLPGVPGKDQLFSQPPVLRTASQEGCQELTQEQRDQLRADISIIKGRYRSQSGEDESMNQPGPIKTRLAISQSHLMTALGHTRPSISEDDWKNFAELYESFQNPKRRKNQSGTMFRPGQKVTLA

The list shows a part of the results. Most entries show no effect beyond the scatter of the controls.

Compound in this test: CN[C@@H]1C[C@H]2O[C@@](C)([C@@H]1OC)n1c3ccccc3c3c4c(c5c6ccccc6n2c5c31)C(=O)NC4 [staurosporine]
The test can be described thus: log2 fold change of tryptic peptide abundance, ligand vs vehicle (limited proteolysis) (log2 ratio); higher = more trypsin-susceptible (destabilized). As to conditions: ligand concentration: 20 uM; sample: K562 cleared lysate; digestion: 4 min, 22 C (HT-PELSA RT4min, Orbitrap Astral).
Take “AKAP8 (peptide sequence: NGSFGGQYSECRDPAR, peptide start residue: 163) (UniProt O43823)”: the log2 fold change is -0.205.

In the case of “FOXO3 (peptide sequence: HNLSLHSR, peptide start residue: 212) (UniProt O43524)”, the log2 fold change was determined as 0.567.

With “MED14 (peptide sequence: KLSDDPCPVESKK, peptide start residue: 615) (UniProt O60244)”, the log2 fold change came out at 0.612.

For the target “TBC1D4 (peptide sequence: KAIHQQILLLR, peptide start residue: 845) (UniProt O60343)”, the log2 fold change was -0.565.

As for “WDR62 (peptide sequence: SAQQGSDGLHFVR, peptide start residue: 609) (UniProt O43379)”, the log2 fold change stood at 0.266.

“RAD21 (peptide sequence: EFENPEVPREDQQQQHQQR, peptide start residue: 419) (UniProt O60216)”: the log2 fold change was -0.268.

Turning to “UniProt O43829 (peptide sequence: FEYLLYGHHR, peptide start residue: 265)”, the log2 fold change was determined as 0.192.

As to “TBCA (peptide sequence: AEDGENYDIKKQAEILQESR, peptide start residue: 42) (UniProt O75347)”, the log2 fold change stood at 0.381.

Consider “UniProt O43189 (peptide sequence: GKVEELGPPSAVR, peptide start residue: 382)”, for which the log2 fold change turned out to be 0.479.

On to “CNOT3 (peptide sequence: KLQGEIDR, peptide start residue: 6) (UniProt O75175)”, for which the log2 fold change came out at 0.182.

“VAMP4 (peptide sequence: HLNDDDVTGSVK, peptide start residue: 8) (UniProt O75379)”: the log2 fold change is -0.0131.

In the case of “KIF21B (peptide sequence: VVVNQDKTSQQISALR, peptide start residue: 374) (UniProt O75037)”, the log2 fold change is 0.964.

In the case of “TNRC18 (peptide sequence: LTPSLLCSMVAK, peptide start residue: 1756) (UniProt O15417)”, the log2 fold change was -0.303.

For “EIF1B (peptide sequence: TLTTVQGIADDYDKKK, peptide start residue: 43) (UniProt O60739)”, the log2 fold change is -0.0973.

Consider “AP1G1 (peptide sequence: STIVDCLKDLDVSIK, peptide start residue: 348) (UniProt O43747)”, for which the log2 fold change was -0.378.

Turning to “NDUFA2 (peptide sequence: ECSDVQPK, peptide start residue: 57) (UniProt O43678)”, the log2 fold change was -0.141.

On to “UniProt O43309 (peptide sequence: AFSQHSHLIEHQR, peptide start residue: 282)”, for which the log2 fold change was 0.103.

Turning to “PRICKLE3 (peptide sequence: QIGGGDIAVFASR, peptide start residue: 192) (UniProt O43900)”, the log2 fold change stood at 0.705.

Consider “CLASP2 (peptide sequence: VLVNSASAQK, peptide start residue: 483) (UniProt O75122)”, for which the log2 fold change is -0.136.

With “UniProt O75344 (peptide sequence: DYVDKEK, peptide start residue: 117)”, the log2 fold change amounted to 0.146.

For “EIF4E2 (peptide sequence: LLFQNLWKPR, peptide start residue: 232) (UniProt O60573)”, the log2 fold change was -0.109.

For the target “NCOR1 (peptide sequence: LPTTRPTRPPPPLIPSSK, peptide start residue: 1024) (UniProt O75376)”, the log2 fold change worked out at 0.386.

With “PEX1 (peptide sequence: LAHALNDMIK, peptide start residue: 688) (UniProt O43933)”, the log2 fold change was 0.685.

Turning to “POLR2D (peptide sequence: FEDEELQQILDDIQTK, peptide start residue: 122) (UniProt O15514)”, the log2 fold change was -0.307.

Turning to “ASNA1 (peptide sequence: LEETLPVIR, peptide start residue: 222) (UniProt O43681)”, the log2 fold change turned out to be 0.419.

Regarding “GMDS (peptide sequence: YYRPTEVDFLQGDCTK, peptide start residue: 323) (UniProt O60547)”, the log2 fold change was determined as 0.199.
